Data published in patent US20250114285A1, “ARRAY OF HAIR DYE PRODUCTS” (The Procter & Gamble Company, priority 2023, published 2025).

Assay: Composition Formulation: color accuracy, dye distribution, oiliness (Example 12)
Design: key: Desirable results are indicated as “good.”; Undesirable results are indicated as “bad.”
Settings: balance Moremo, 2 min activation
[1] = Dye 0.2 wt %, isopropyl myristate 9.8 wt %
[2] = Dye 0.4 wt %, isopropyl myristate 19.6 wt %
[3] = Dye 0.61 wt %, isopropyl myristate 30.1 wt %
[4] = Dye 0.7 wt %, isopropyl myristate 34.3 wt %
[5] = Dye 0.81 wt %, isopropyl myristate 39.8 wt %
[6] = Dye 1.0 wt %, isopropyl myristate 49.0 wt %
[7] = Dye 1.2 wt %, isopropyl myristate 58.8 wt %
[8] = Dye 1.47 wt %, isopropyl myristate 29.2 wt %
[9] = Dye 1.4 wt %, isopropyl myristate 68.6 wt %

Compound: Cc1sc(-c2ccccc2)cc1C1=C(c2cc(-c3ccccc3)sc2C)C(F)(F)C(F)(F)C1(F)F [DAE-0001, 3,3′-(perfluorocyclopent-1-ene-1,2-diyl)bis(2-methyl-5-phenylthiophene)]
- Color Accuracy [1]: bad
- Dye distribution [1]: bad
- Oiliness [1]: good
- Color Accuracy [2]: bad
- Dye distribution [2]: bad
- Oiliness [2]: good
- Color Accuracy [3]: bad
- Dye distribution [3]: good
- Oiliness [3]: good
- Color Accuracy [4]: good
- Dye distribution [4]: good
- Oiliness [4]: bad
- Color Accuracy [5]: good
- Dye distribution [5]: good
- Oiliness [5]: bad
- Color Accuracy [6]: good
- Dye distribution [6]: good
- Oiliness [6]: bad
- Color Accuracy [7]: good
- Dye distribution [7]: good
- Oiliness [7]: bad
- Color Accuracy [8]: good
- Dye distribution [8]: good
- Oiliness [8]: good

Compound: Cc1sc(-c2ccccc2)nc1C1=C(c2nc(-c3ccccc3)sc2C)C(F)(F)C(F)(F)C1(F)F [DAE-0012, 4,4′-(perfluorocyclopent-1-ene-1,2-diyl)bis(5-methyl-2-phenylthiazole)]
- Color Accuracy [1]: bad
- Dye distribution [1]: bad
- Oiliness [1]: good
- Color Accuracy [2]: bad
- Dye distribution [2]: bad
- Oiliness [2]: good
- Color Accuracy [3]: bad
- Dye distribution [3]: good
- Oiliness [3]: good
- Color Accuracy [4]: good
- Dye distribution [4]: good
- Oiliness [4]: good
- Color Accuracy [5]: good
- Dye distribution [5]: good
- Oiliness [5]: bad
- Color Accuracy [6]: good
- Dye distribution [6]: good
- Oiliness [6]: bad
- Color Accuracy [7]: good
- Dye distribution [7]: good
- Oiliness [7]: bad
- Color Accuracy [9]: good
- Dye distribution [9]: good
- Oiliness [9]: bad
